This is one part of the list.
Tests used:
Test in all cases: glycan array binding signal (z-score within array); higher = stronger binding
Conditions in all cases: glycan notation: IUPAC condensed, linker removed
Fuc(b1-3)GlcNAc = biological target: Fuc(b1-3)GlcNAc
How it was run: (§1)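 Negative Z-scores can be read as non-binding. The Z-score is calculated within each array and then averaged across arrays of one protein sequence at different concentrations or buffers and across linkers. Arrays, 3228 in all, were curated from the Consortium for Functional Glycomics database and kept only where the protein sequence was available.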

Gal(a1-2)Gal = biological target: Gal(a1-2)Gal
How it was run: as §1

Gal(a1-3)Gal = biological target: Gal(a1-3)Gal
How it was run: as §1

Gal(a1-3)Gal(b1-3)Glc = biological target: Gal(a1-3)Gal(b1-3)Glc
How it was run: as §1

Gal(a1-3)Gal(b1-3)GlcNAc = biological target: Gal(a1-3)Gal(b1-3)GlcNAc
How it was run: as §1

Gal(a1-3)Gal(b1-4)GlcNAc = biological target: Gal(a1-3)Gal(b1-4)GlcNAc
How it was run: as §1

[1] = biological target: Gal(a1-3)Gal(b1-4)[Fuc(a1-3)]GalNAc
How it was run: as §1

Gal(a1-3)GlcNAc = biological target: Gal(a1-3)GlcNAc
How it was run: as §1

[2] = biological target: Gal(a1-3)[Gal(a1-4)]Gal(b1-4)GlcNAc
How it was run: as §1

Gal(a1-4)Gal(b1-4)Gal = biological target: Gal(a1-4)Gal(b1-4)Gal
How it was run: as §1

Gal(a1-4)Gal(b1-4)GalNAc = biological target: Gal(a1-4)Gal(b1-4)GalNAc
How it was run: as §1

Gal(a1-4)GlcNAc = biological target: Gal(a1-4)GlcNAc
How it was run: as §1

Gal(a1-6)Glc = biological target: Gal(a1-6)Glc
How it was run: as §1

Gal(b1-2)Gal = biological target: Gal(b1-2)Gal
How it was run: as §1

Gal(b1-3)Gal = biological target: Gal(b1-3)Gal
How it was run: as §1

Gal(b1-3)GalNAc = biological target: Gal(b1-3)GalNAc
How it was run: as §1

[3] = biological target: Gal(b1-3)GalNAc(b1-3)Gal(a1-4)Gal(b1-4)Glc
How it was run: as §1

[4] = biological target: Gal(b1-3)GalNAc(b1-3)Gal(b1-4)Glc
How it was run: as §1

[5] = biological target: Gal(b1-3)GalNAc(b1-3)Gal(b1-4)GlcNAc
How it was run: as §1

[6] = biological target: Gal(b1-3)GalNAc(b1-4)Gal(b1-4)Glc
How it was run: as §1

[7] = biological target: Gal(b1-3)GalNAc(b1-4)[Neu5Ac(a2-3)]Gal(b1-4)Glc
How it was run: as §1

[8] = biological target: Gal(b1-3)GlcNAc(b1-3)Gal(b1-3)GlcNAc
How it was run: as §1

[9] = biological target: Gal(b1-3)[Fuc(a1-4)]GlcNAc
How it was run: as §1

[10] = biological target: Gal(b1-3)[Fuc(a1-4)]GlcNAc(b1-3)Gal(b1-3)[Fuc(a1-4)]GlcNAc
How it was run: as §1

[11] = biological target: Gal(b1-3)[Fuc(a1-4)]GlcNAc(b1-3)Gal(b1-4)GlcNAc
How it was run: as §1

[12] = biological target: Gal(b1-3)[Fuc(a1-4)]GlcNAc(b1-3)Gal(b1-4)[Fuc(a1-3)]GlcNAc
How it was run: as §1

[13] = biological target: Gal(b1-3)[GlcNAc(b1-6)]GalNAc
How it was run: as §1

[14] = biological target: Gal(b1-3)[GlcNAc(b1-6)]GlcNAc
How it was run: as §1

[15] = biological target: Gal(b1-3)[Neu5Ac(a2-6)]GalNAc
How it was run: as §1

[16] = biological target: Gal(b1-3)[Neu5Ac(a2-6)]GlcNAc
How it was run: as §1

[17] = biological target: Gal(b1-3)[Neu5Ac(a2-6)]GlcNAc(a1-4)Gal(b1-4)Glc
How it was run: as §1

[18] = biological target: Gal(b1-3)[Neu5Ac(b2-6)]GlcNAc
How it was run: as §1

[19] = biological target: Gal(b1-4)GalNAc(a1-3)[Fuc(a1-2)]Gal(b1-4)GlcNAc
How it was run: as §1

[20] = biological target: Gal(b1-4)GalNAc(b1-3)[Fuc(a1-2)]Gal(b1-4)GlcNAc
How it was run: as §1

Gal(b1-4)Glc = biological target: Gal(b1-4)Glc
How it was run: as §1

Gal(b1-4)Glc6S = biological target: Gal(b1-4)Glc6S
How it was run: as §1

Gal(b1-4)GlcNAc = biological target: Gal(b1-4)GlcNAc
How it was run: as §1

[21] = biological target: Gal(b1-4)GlcNAc(b1-2)Man(a1-3)[Gal(b1-4)GlcNAc(b1-2)Man(a1-6)]Man(b1-4)GlcNAc(b1-4)GlcNAc
How it was run: as §1

[22] = biological target: Gal(b1-4)GlcNAc(b1-3)Gal(b1-3)GlcNAc
How it was run: as §1

[23] = biological target: Gal(b1-4)GlcNAc(b1-3)Gal(b1-4)Glc
How it was run: as §1

[24] = biological target: Gal(b1-4)GlcNAc(b1-3)Gal(b1-4)GlcNAc
How it was run: as §1

[25] = biological target: Gal(b1-4)GlcNAc(b1-3)Gal(b1-4)GlcNAc(b1-3)Gal(b1-4)GlcNAc
How it was run: as §1

[26] = biological target: Gal(b1-4)GlcNAc(b1-3)Gal(b1-4)[Fuc(a1-3)]GlcNAc(b1-3)Gal(b1-4)[Fuc(a1-3)]GlcNAc
How it was run: as §1

[27] = biological target: Gal(b1-4)GlcNAc(b1-3)GalNAc
How it was run: as §1

[28] = biological target: Gal(b1-4)GlcNAc(b1-3)[Gal(b1-4)GlcNAc(b1-6)]GalNAc
How it was run: as §1

B1: KCR (Mus musculus), P70194 (protein)
chain: MKEAELNRDMARYCTDNQCVSLQPQGLGPKSAALMAPRTLRHVQVILALMVVTVIFSLLALFVVASQPWRPEWNKEPPSLLLRGSNNSGHDNHSQFVRETEMQVAIQRLRDYEENSSSCHKEVQILKYQMDNVSSLVQLLGSHLEDVNADILQTKDVLKESGALALETQALRSSLEVASADIHSLRGDLEKANAMTSQTRGLLKSSTENTSAELHVLGRGLEEAQSEIQALRGSLQSANDLSSQTQGFLQHSMDNISAQIQTVRDGMERAGEKMNSLKKELETLTAQTQKANGHLEQTDAQIQGLKAELKSTSSLNSRIEVVNGQMKDASRELQTLRRDLSDVSALKSNVQMLQSNLQRAKTEMQTLKADLQATKALTAKIQGEQNRLGALQEAVAAQKQEQKTQNQVLQLIAQNWKYFNGNFYYFSRDKKPWREAEKFCTSQGAHLASVTSQEEQAFLVQTTSSGDHWIGLTDQGTEGIWRWVDGTPFNNAQSKGFWGKNQPDNWRHRNGEREDCVHVRQQWNDMACGSSYPWVCKKSTGWSAARVG
glycan array binding signal (z-score) (Fuc(b1-3)GlcNAc): -0.284 | glycan array binding signal (z-score) (Gal(a1-2)Gal): -0.57 | glycan array binding signal (z-score) (Gal(a1-3)Gal): 0.035 | glycan array binding signal (z-score) (Gal(a1-3)Gal(b1-3)Glc): -0.236 | glycan array binding signal (z-score) (Gal(a1-3)Gal(b1-3)GlcNAc): -0.075 | glycan array binding signal (z-score) (Gal(a1-3)Gal(b1-4)GlcNAc): 0.005 | glycan array binding signal (z-score) [1]: 0.117 | glycan array binding signal (z-score) (Gal(a1-3)GlcNAc): -0.138 | glycan array binding signal (z-score) [2]: 0.524 | glycan array binding signal (z-score) (Gal(a1-4)Gal(b1-4)Gal): -0.026 | glycan array binding signal (z-score) (Gal(a1-4)Gal(b1-4)GalNAc): -0.356 | glycan array binding signal (z-score) (Gal(a1-4)GlcNAc): 0.207 | glycan array binding signal (z-score) (Gal(a1-6)Glc): 0.312 | glycan array binding signal (z-score) (Gal(b1-2)Gal): -0.225 | glycan array binding signal (z-score) (Gal(b1-3)Gal): 0.012 | glycan array binding signal (z-score) (Gal(b1-3)GalNAc): 0.154 | glycan array binding signal (z-score) [3]: 0.244 | glycan array binding signal (z-score) [4]: -0.052 | glycan array binding signal (z-score) [5]: -0.387 | glycan array binding signal (z-score) [6]: 0.07 | glycan array binding signal (z-score) [7]: 0.387 | glycan array binding signal (z-score) [8]: -0.594 | glycan array binding signal (z-score) [9]: 1.28 | glycan array binding signal (z-score) [10]: 0.348 | glycan array binding signal (z-score) [11]: 0.122 | glycan array binding signal (z-score) [12]: 0.974 | glycan array binding signal (z-score) [13]: -0.209 | glycan array binding signal (z-score) [14]: -0.325 | glycan array binding signal (z-score) [15]: 0 | glycan array binding signal (z-score) [16]: 0.083 | glycan array binding signal (z-score) [17]: 0.04 | glycan array binding signal (z-score) [18]: 0.293 | glycan array binding signal (z-score) [19]: 0.064 | glycan array binding signal (z-score) [20]: 0.906 | glycan array binding signal (z-score) (Gal(b1-4)Glc): -0.247 | glycan array binding signal (z-score) (Gal(b1-4)Glc6S): 1.06 | glycan array binding signal (z-score) (Gal(b1-4)GlcNAc): -0.353 | glycan array binding signal (z-score) [21]: -0.456 | glycan array binding signal (z-score) [22]: -0.749 | glycan array binding signal (z-score) [23]: 0 | glycan array binding signal (z-score) [24]: 0.196 | glycan array binding signal (z-score) [25]: -0.732 | glycan array binding signal (z-score) [26]: -0.057 | glycan array binding signal (z-score) [27]: -0.633 | glycan array binding signal (z-score) [28]: -0.227

Source: the supplement of paper PMC8728848
